The text below walks through data of article PMC11090844.

Protein sequences, listed by entry. Tags and fused reporters are not part of them. Lines headed by an entry give the natural chain unless they say otherwise; changes in a name come on top. Chains listed by the source or under a name are the forms on record and can include a tag or linker.
Myc-BRCC3 (P46736-2, form named): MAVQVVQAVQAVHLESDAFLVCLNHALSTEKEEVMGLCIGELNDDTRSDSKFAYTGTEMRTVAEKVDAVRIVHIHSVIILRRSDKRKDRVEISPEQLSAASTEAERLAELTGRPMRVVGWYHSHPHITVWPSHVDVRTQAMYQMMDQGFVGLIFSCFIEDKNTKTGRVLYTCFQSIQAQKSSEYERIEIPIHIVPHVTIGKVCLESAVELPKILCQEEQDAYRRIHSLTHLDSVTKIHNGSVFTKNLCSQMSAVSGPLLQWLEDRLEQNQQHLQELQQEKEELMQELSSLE

Assay [1] addresses T1, zinc finger E-box binding homeobox 1 (ZEB1), endogenous (human (endogenous in MDA-MB-231)) (UniProt P37275).
T1 sequence: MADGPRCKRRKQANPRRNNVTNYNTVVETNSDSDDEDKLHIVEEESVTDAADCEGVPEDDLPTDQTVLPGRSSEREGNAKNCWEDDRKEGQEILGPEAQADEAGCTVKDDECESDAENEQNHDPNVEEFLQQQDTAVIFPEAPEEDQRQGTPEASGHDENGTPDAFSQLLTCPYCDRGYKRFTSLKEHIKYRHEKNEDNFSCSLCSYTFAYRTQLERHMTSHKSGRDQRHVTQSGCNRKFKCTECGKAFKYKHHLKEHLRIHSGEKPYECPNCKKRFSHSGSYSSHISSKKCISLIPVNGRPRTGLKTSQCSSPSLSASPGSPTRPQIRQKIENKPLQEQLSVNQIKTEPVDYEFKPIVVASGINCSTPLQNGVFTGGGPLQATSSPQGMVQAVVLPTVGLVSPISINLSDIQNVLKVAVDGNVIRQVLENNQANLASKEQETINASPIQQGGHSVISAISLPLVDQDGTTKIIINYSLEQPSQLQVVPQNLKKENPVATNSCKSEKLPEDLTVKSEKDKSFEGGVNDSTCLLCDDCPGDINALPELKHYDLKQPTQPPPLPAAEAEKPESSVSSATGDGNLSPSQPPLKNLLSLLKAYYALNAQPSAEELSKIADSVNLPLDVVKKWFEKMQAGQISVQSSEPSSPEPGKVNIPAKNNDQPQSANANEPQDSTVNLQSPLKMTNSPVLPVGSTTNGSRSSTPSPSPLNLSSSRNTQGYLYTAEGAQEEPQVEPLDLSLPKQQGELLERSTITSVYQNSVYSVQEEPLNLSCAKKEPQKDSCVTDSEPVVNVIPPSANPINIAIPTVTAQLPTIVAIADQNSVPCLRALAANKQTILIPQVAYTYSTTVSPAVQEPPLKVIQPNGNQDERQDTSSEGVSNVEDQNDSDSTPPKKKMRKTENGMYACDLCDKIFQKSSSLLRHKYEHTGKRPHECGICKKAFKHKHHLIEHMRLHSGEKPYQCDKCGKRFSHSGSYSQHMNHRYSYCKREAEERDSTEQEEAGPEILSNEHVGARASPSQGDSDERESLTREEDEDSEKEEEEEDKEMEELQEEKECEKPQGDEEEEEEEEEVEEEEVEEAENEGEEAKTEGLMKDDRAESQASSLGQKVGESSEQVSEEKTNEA
As to the kind of experiment: co-IP; endogenous proteins in MDA-MB-231 lysate; anti-ZEB1 or anti-BRCC3 antibody on Protein A/G agarose, overnight at 4°C; IgG as negative control; western blot with anti-ZEB1 and anti-BRCC3. (In general: In western blotting, separated proteins are transferred to a membrane and probed.)

Assay [2] concerns the target T2, Flag-ZEB1 (zinc finger E-box binding homeobox 1) (UniProt P37275).
T2 sequence: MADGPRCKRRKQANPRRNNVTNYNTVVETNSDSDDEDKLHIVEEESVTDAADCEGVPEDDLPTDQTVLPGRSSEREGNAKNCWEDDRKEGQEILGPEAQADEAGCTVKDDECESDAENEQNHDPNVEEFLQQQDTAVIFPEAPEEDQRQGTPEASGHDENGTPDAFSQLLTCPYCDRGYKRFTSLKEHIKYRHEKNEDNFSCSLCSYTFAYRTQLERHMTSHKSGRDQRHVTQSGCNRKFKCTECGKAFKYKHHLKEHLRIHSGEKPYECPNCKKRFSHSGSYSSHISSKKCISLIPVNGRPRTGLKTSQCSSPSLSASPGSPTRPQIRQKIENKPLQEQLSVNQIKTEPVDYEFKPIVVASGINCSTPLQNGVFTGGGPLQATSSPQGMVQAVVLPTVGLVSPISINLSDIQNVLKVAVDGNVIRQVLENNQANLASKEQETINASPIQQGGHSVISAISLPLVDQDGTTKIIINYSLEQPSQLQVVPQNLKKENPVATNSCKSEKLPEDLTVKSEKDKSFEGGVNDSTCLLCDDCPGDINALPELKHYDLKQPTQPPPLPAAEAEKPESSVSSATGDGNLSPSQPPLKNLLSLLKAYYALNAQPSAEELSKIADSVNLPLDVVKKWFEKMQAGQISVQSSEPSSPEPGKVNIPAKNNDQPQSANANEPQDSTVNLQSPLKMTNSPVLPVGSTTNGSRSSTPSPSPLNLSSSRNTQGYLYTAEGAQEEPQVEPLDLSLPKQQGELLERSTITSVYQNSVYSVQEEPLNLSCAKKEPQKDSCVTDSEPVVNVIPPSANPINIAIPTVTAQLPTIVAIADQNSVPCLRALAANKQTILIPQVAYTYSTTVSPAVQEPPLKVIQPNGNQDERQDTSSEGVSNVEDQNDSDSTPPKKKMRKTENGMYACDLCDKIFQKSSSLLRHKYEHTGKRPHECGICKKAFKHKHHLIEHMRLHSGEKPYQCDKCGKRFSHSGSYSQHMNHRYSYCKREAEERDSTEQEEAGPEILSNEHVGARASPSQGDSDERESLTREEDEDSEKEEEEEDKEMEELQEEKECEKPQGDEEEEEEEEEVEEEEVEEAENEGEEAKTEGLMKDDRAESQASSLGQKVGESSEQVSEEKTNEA
As to the kind of experiment: co-IP; MDA-MB-231 cells transfected with Flag-ZEB1 or Myc-BRCC3 for 48 h, treated with MG132 (20 uM); NP40 lysate; IP with anti-Flag or anti-Myc overnight at 4°C, protein A+G agarose; western blot with anti-ZEB1 and anti-BRCC3.

The target in assay [3] is breast cancer susceptibility gene 1/2-containing complex subunit 3 (BRCC3), endogenous (human (endogenous in MDA-MB-231)) (UniProt P46736). The assay is described as follows: co-IP; endogenous proteins in MDA-MB-231 lysate; anti-ZEB1 or anti-BRCC3 antibody on Protein A/G agarose, overnight at 4°C; IgG as negative control; western blot with anti-ZEB1 and anti-BRCC3.
A further assay concerns the target Myc-BRCC3 (UniProt P46736). As to the kind of experiment: co-IP; MDA-MB-231 cells transfected with Flag-ZEB1 or Myc-BRCC3 for 48 h, treated with MG132 (20 uM); NP40 lysate; IP with anti-Flag or anti-Myc overnight at 4°C, protein A+G agarose; western blot with anti-ZEB1 and anti-BRCC3.

Results are given in words; binding and its absence hold for the method and conditions named. In cells and extracts the contact can be indirect. Some binding calls cover weakened binding; strength is not graded here. For some of these results: Tags and fused reporters may be left off the sequences shown.

Regarding “breast cancer susceptibility gene 1/2-containing complex subunit 3 (BRCC3), endogenous (from UniProt P46736-2 1-291) (enzyme)”, the binding result in assay [1] and in assay [2] was “binds” in each case.

B1: zinc finger E-box binding homeobox 1 (ZEB1), endogenous (protein, UniProt P37275 1-1124)
chain: MADGPRCKRRKQANPRRNNVTNYNTVVETNSDSDDEDKLHIVEEESVTDAADCEGVPEDDLPTDQTVLPGRSSEREGNAKNCWEDDRKEGQEILGPEAQADEAGCTVKDDECESDAENEQNHDPNVEEFLQQQDTAVIFPEAPEEDQRQGTPEASGHDENGTPDAFSQLLTCPYCDRGYKRFTSLKEHIKYRHEKNEDNFSCSLCSYTFAYRTQLERHMTSHKSGRDQRHVTQSGCNRKFKCTECGKAFKYKHHLKEHLRIHSGEKPYECPNCKKRFSHSGSYSSHISSKKCISLIPVNGRPRTGLKTSQCSSPSLSASPGSPTRPQIRQKIENKPLQEQLSVNQIKTEPVDYEFKPIVVASGINCSTPLQNGVFTGGGPLQATSSPQGMVQAVVLPTVGLVSPISINLSDIQNVLKVAVDGNVIRQVLENNQANLASKEQETINASPIQQGGHSVISAISLPLVDQDGTTKIIINYSLEQPSQLQVVPQNLKKENPVATNSCKSEKLPEDLTVKSEKDKSFEGGVNDSTCLLCDDCPGDINALPELKHYDLKQPTQPPPLPAAEAEKPESSVSSATGDGNLSPSQPPLKNLLSLLKAYYALNAQPSAEELSKIADSVNLPLDVVKKWFEKMQAGQISVQSSEPSSPEPGKVNIPAKNNDQPQSANANEPQDSTVNLQSPLKMTNSPVLPVGSTTNGSRSSTPSPSPLNLSSSRNTQGYLYTAEGAQEEPQVEPLDLSLPKQQGELLERSTITSVYQNSVYSVQEEPLNLSCAKKEPQKDSCVTDSEPVVNVIPPSANPINIAIPTVTAQLPTIVAIADQNSVPCLRALAANKQTILIPQVAYTYSTTVSPAVQEPPLKVIQPNGNQDERQDTSSEGVSNVEDQNDSDSTPPKKKMRKTENGMYACDLCDKIFQKSSSLLRHKYEHTGKRPHECGICKKAFKHKHHLIEHMRLHSGEKPYQCDKCGKRFSHSGSYSQHMNHRYSYCKREAEERDSTEQEEAGPEILSNEHVGARASPSQGDSDERESLTREEDEDSEKEEEEEDKEMEELQEEKECEKPQGDEEEEEEEEEVEEEEVEEAENEGEEAKTEGLMKDDRAESQASSLGQKVGESSEQVSEEKTNEA
As to B1, the binding result (in assay [3]; with Myc-BRCC3) was “binds” in each case.
